Test results reported in PubChem BioAssay AID248 (DTP/NCI, 2004).
The list does not hold the whole screen: its compounds were picked by chemical class. Other doses and runs of a compound may be missing. T/C gives the treated animals as a percentage of the vehicle group. Some entries give survivors of the animals treated and no T/C: the source files T/C as zero there, which appears to mark a toxic dose or a test without result, not a measured value. Some survivor counts are full or nearly so, which does not show that the dose was tolerated: survival well below the control is almost never listed, so the zero probably covers shortened survival too. Counts of survivors are from the toxicity check (mostly the fifth day) where no day follows; animals may have died later. Schedules are NCI's codes, taken here to give the interval after Q, in days (D) or hours (H), and the number of doses after X. Some complexes appear as separate parts, the way the source draws them; their charges need not add up. For survival time, the PubChem record calls one and a half times the control and up active, and a quarter to a half above the control has no call in these data; cut-offs in other NCI protocols can differ. Some entries hold several experiments; the results are listed from low to high. Some entries show no survivor count and are marked so; the dose need not have been tolerated. Some T/C values carry the count of animals alive at the toxicity check (mostly the fifth day); without a count or a note in brackets, all were alive then.

Tested on: L1210 leukemia ip in BDF1 mice, survival T/C
Assay: NCI In Vivo Anticancer Drug Screen. Data for tumor model L1210 Leukemia (intraperitoneal) in B6D2F1 (BDF1) mice
Settings: T/C endpoint: mean survival time, higher T/C = longer survival
[1] = dose: 100.0 mg/kg/injection, schedule: Q01DX001 (ip), vehicle: saline
[2] = dose: 200.0 mg/kg/injection, schedule: Q01DX001 (ip), vehicle: saline
[3] = dose: 400.0 mg/kg/injection, schedule: Q01DX001 (ip), vehicle: saline
[4] = dose: 75.0 mg/kg/injection, schedule: Q01DX001 (ip), vehicle: saline
[5] = dose: 50.0 mg/kg/injection, schedule: Q04DX003 (ip), vehicle: saline with Tween-80
[6] = dose: 100.0 mg/kg/injection, schedule: Q04DX003 (ip), vehicle: saline with Tween-80
[7] = dose: 50.0 mg/kg/injection, schedule: Q01DX001 (ip), vehicle: saline

## N/C(=N\[N+](=O)[O-])NCCCl
dose: 12.5 mg/kg/injection, schedule: Q01DX009 (ip), vehicle: Klucel (hydroxypropylcellulose) (HPC)
  T/C: 110 % of control
dose: 25.0 mg/kg/injection, schedule: Q01DX009 (ip), vehicle: Klucel (hydroxypropylcellulose) (HPC)
  T/C: 101 % of control
dose: 25.0 mg/kg/injection, schedule: Q04DX003 (ip), vehicle: Klucel (hydroxypropylcellulose) (HPC)
  T/C: 98 % of control
dose: 50.0 mg/kg/injection, schedule: Q01DX009 (ip), vehicle: Klucel (hydroxypropylcellulose) (HPC)
  T/C: 100 % of control
dose: 50.0 mg/kg/injection, schedule: Q04DX003 (ip), vehicle: Klucel (hydroxypropylcellulose) (HPC)
  T/C: 94 % of control
dose: 100.0 mg/kg/injection, schedule: Q01DX009 (ip), vehicle: Klucel (hydroxypropylcellulose) (HPC)
  T/C: 105 % of control
dose: 100.0 mg/kg/injection, schedule: Q04DX003 (ip), vehicle: Klucel (hydroxypropylcellulose) (HPC)
  T/C: 91 and 95 % of control
dose: 200.0 mg/kg/injection, schedule: Q04DX003 (ip), vehicle: Klucel (hydroxypropylcellulose) (HPC)
  survivor count: 6 of 6
dose: 400.0 mg/kg/injection, schedule: Q04DX003 (ip), vehicle: Klucel (hydroxypropylcellulose) (HPC)
  survivor count: 0 of 6

## CCOC(=O)NP(=O)(NC(=O)NOC)NC(=O)OC(CCl)CCl (centres undefined)
[1]
  T/C: 96 % of control
[2]
  T/C: 98 % of control [4 of 6 alive]
[3]
  survivor count: 0 of 6

## CCCCCCCCCCOP(=O)(Cl)CC (centres undefined)
[4]
  T/C: 89 % of control [survivor count not shown]

## CCCN(CCC)CCC.F[P-](F)(F)(F)(F)F
[5]
  T/C: 98 % of control
[6]
  T/C: 94 % of control
dose: 200.0 mg/kg/injection, schedule: Q04DX003 (ip), vehicle: saline with Tween-80
  survivor count: 0 of 6
dose: 400.0 mg/kg/injection, schedule: Q04DX003 (ip), vehicle: saline with Tween-80
  survivor count: 0 of 6

## CP(I)(Oc1ccccc1)(Oc1ccccc1)Oc1ccccc1
dose: 50.0 mg/kg/injection, schedule: Q01DX009 (sc), vehicle: olive oil, sesame oil, peanut oil
  T/C: 108 % of control [survivor count not shown]
dose: 100.0 mg/kg/injection, schedule: Q01DX001 (sc), vehicle: olive oil, sesame oil, peanut oil
  T/C: 103 % of control [survivor count not shown]
dose: 100.0 mg/kg/injection, schedule: Q01DX009 (sc), vehicle: olive oil, sesame oil, peanut oil
  T/C: 106 % of control [survivor count not shown]
dose: 200.0 mg/kg/injection, schedule: Q01DX001 (sc), vehicle: olive oil, sesame oil, peanut oil
  T/C: 103 % of control [survivor count not shown]
dose: 400.0 mg/kg/injection, schedule: Q01DX001 (sc), vehicle: olive oil, sesame oil, peanut oil
  T/C: 108 % of control [survivor count not shown]

## CCCCOP(C)(O)=S (centres undefined)
dose: 12.5 mg/kg/injection, schedule: Q04DX002 (ip), vehicle: saline with Tween-80
  T/C: 102 % of control [survivor count not shown]
dose: 25.0 mg/kg/injection, schedule: Q04DX002 (ip), vehicle: saline with Tween-80
  T/C: 105 % of control [survivor count not shown]

## O=[N+]([O-])c1cc([N+](=O)[O-])c(S(=O)(=O)[O-])c([N+](=O)[O-])c1.c1ccc2cc3[s+]c4ccccc4cc3cc2c1
dose: 100.0 mg/kg/injection, schedule: Q01DX001 (ip), vehicle: acetone
  T/C: 89 % of control [survivor count not shown]
dose: 200.0 mg/kg/injection, schedule: Q01DX001 (ip), vehicle: acetone
  T/C: 95 % of control [survivor count not shown]
dose: 400.0 mg/kg/injection, schedule: Q01DX001 (ip), vehicle: acetone
  T/C: 103 % of control [survivor count not shown]

## COP(=O)(OC)N(CCCl)CCCl
dose: 22.0 mg/kg/injection, schedule: Q04DX003 (ip), vehicle: saline
  T/C: 109 % of control
dose: 30.0 mg/kg/injection, schedule: Q04DX003 (ip), vehicle: saline
  T/C: 101 % of control
dose: 33.0 mg/kg/injection, schedule: Q04DX003 (ip), vehicle: saline
  T/C: 118 % of control
dose: 50.0 mg/kg/injection, schedule: Q04DX003 (ip), vehicle: saline
  T/C: 129 % of control
dose: 60.0 mg/kg/injection, schedule: Q04DX003 (ip), vehicle: saline
  T/C: 112 % of control
dose: 66.0 mg/kg/injection, schedule: Q04DX003 (ip), vehicle: saline
  T/C: 120 % of control
[4]
  T/C: 116 % of control
dose: 100.0 mg/kg/injection, schedule: Q04DX003 (ip), vehicle: saline
  T/C: 158 % of control
dose: 120.0 mg/kg/injection, schedule: Q04DX003 (ip), vehicle: saline
  T/C: 149 % of control
dose: 150.0 mg/kg/injection, schedule: Q01DX001 (ip), vehicle: saline
  T/C: 132 % of control
dose: 150.0 mg/kg/injection, schedule: Q04DX003 (ip), vehicle: saline
  T/C: 168 % of control
dose: 300.0 mg/kg/injection, schedule: Q01DX001 (ip), vehicle: saline
  survivor count: 2 of 6

## [N-]=[N+]=CC(=O)CCN(CCC(=O)C=[N+]=[N-])[N+](=O)[O-]
dose: 100.0 mg/kg/injection, schedule: Q04DX002 (ip), vehicle: saline with Tween-80
  T/C: 105 % of control
dose: 200.0 mg/kg/injection, schedule: Q04DX002 (ip), vehicle: saline with Tween-80
  T/C: 108 % of control
dose: 400.0 mg/kg/injection, schedule: Q04DX002 (ip), vehicle: saline with Tween-80
  T/C: 101 % of control

## Cc1c([N+](=O)[O-])c(C)c([N+](=O)[O-])c(Nc2c([N+](=O)[O-])c(C)c([N+](=O)[O-])c(C)c2[N+](=O)[O-])c1[N+](=O)[O-]
dose: 5.0 mg/kg/injection, schedule: Q01DX001 (ip), vehicle: saline
  T/C: 103 % of control [survivor count not shown]
dose: 10.0 mg/kg/injection, schedule: Q01DX001 (ip), vehicle: saline
  T/C: 97 % of control [survivor count not shown]
dose: 11.0 mg/kg/injection, schedule: Q01DX001 (ip), vehicle: saline
  T/C: 102 % of control [survivor count not shown]
dose: 17.0 mg/kg/injection, schedule: Q01DX001 (ip), vehicle: saline
  T/C: 98 % of control [survivor count not shown]
dose: 20.0 mg/kg/injection, schedule: Q01DX001 (ip), vehicle: saline
  T/C: 106 % of control [survivor count not shown]
dose: 25.0 mg/kg/injection, schedule: Q01DX001 (ip), vehicle: saline
  T/C: 102 % of control [survivor count not shown]
dose: 40.0 mg/kg/injection, schedule: Q01DX001 (ip), vehicle: saline
  T/C: 90 [survivor count not shown], 96 [survivor count not shown], 100 [survivor count not shown], 102 % of control [survivor count not shown]
dose: 60.0 mg/kg/injection, schedule: Q01DX001 (ip), vehicle: saline
  T/C: 107 % of control [survivor count not shown]
dose: 90.0 mg/kg/injection, schedule: Q01DX001 (ip), vehicle: saline
  T/C: 104 % of control [survivor count not shown]
dose: 135.0 mg/kg/injection, schedule: Q01DX001 (ip), vehicle: saline
  T/C: 101 [survivor count not shown] and 109 % of control [survivor count not shown]

## CN1C(O)CCOP1(=O)N(CCCl)CCCl (centres undefined)
dose: 100.0 mg/kg/injection, schedule: Q01DX001 (ip), vehicle: DMSO
  T/C: 110 % of control
dose: 200.0 mg/kg/injection, schedule: Q01DX001 (ip), vehicle: DMSO
  T/C: 123 % of control [5 of 6 alive]
dose: 400.0 mg/kg/injection, schedule: Q01DX001 (ip), vehicle: DMSO
  T/C: 189 % of control [5 of 6 alive]

## CS(=O)(=O)N1CC(Cl)CN(S(C)(=O)=O)C(CCl)C1 (centres undefined)
dose: 12.5 mg/kg/injection, schedule: Q04DX002 (ip), vehicle: Klucel (hydroxypropylcellulose) (HPC)
  survivor count: 3 of 3
dose: 25.0 mg/kg/injection, schedule: Q04DX002 (ip), vehicle: Klucel (hydroxypropylcellulose) (HPC)
  T/C: 95 % of control
dose: 50.0 mg/kg/injection, schedule: Q04DX002 (ip), vehicle: Klucel (hydroxypropylcellulose) (HPC)
  T/C: 100 % of control

## Cc1ccc2c(c1)C[P+](c1ccccc1)(c1ccccc1)CC2C.F[P-](F)(F)(F)(F)F (centres undefined)
dose: 25.0 mg/kg/injection, schedule: Q04DX003 (ip), vehicle: saline with Tween-80
  T/C: 96 % of control
[5]
  T/C: 93 % of control
[6]
  survivor count: 0 of 3

## O=C(O)CCCC(=O)SCCCl
[7]
  survivor count: 4 of 4
[1]
  T/C: 93 % of control
[2]
  T/C: 88 % of control
[3]
  T/C: 88 % of control

## O=[N+]([O-])c1cc(Cl)c(O)c([N+](=O)[O-])c1
[7]
  T/C: 96 % of control
[1]
  T/C: 98 % of control
[2]
  T/C: 98 % of control
[3]
  survivor count: 0 of 4
